Measurements taken from article PMC12204631.

T1: 6HIS-HA-JHD2 (S. cerevisiae) (UniProt P47156)
T1 sequence: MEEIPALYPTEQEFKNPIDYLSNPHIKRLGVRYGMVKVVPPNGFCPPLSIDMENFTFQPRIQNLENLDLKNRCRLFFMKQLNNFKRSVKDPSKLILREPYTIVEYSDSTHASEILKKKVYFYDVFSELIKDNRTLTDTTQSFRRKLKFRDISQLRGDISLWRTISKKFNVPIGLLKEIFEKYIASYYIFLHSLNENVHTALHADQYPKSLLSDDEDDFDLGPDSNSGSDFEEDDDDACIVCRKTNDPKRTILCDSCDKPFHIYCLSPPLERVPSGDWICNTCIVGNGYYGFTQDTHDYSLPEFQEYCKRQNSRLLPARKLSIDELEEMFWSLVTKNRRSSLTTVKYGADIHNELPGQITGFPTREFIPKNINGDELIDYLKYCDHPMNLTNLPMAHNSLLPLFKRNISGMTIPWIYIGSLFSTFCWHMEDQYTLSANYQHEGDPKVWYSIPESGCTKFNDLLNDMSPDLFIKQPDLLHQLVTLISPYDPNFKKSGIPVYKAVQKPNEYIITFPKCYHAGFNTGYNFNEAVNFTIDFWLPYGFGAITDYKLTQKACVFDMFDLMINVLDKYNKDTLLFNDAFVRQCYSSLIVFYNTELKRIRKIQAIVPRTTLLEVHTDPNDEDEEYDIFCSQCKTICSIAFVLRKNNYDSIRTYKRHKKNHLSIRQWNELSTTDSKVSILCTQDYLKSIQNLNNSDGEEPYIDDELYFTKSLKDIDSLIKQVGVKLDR

B1: CRG1 (protein, UniProt P38892 1-291)
chain: MPKTSYLNKNFESAHYNNVRPSYPLSLVNEIMKFHKGTRKSLVDIGCGTGKATFVVEPYFKEVIGIDPSSAMLSIAEKETNERRLDKKIRFINAPGEDLSSIRPESVDMVISAEAIHWCNLERLFQQVSSILRSDGTFAFWFYIQPEFVDFPEALNVYYKYGWSKDYMGKYLNDNQREILLNYGGEKLRSLLSDRFGDIEVTIYSPSDPNASTVTAENSQFLWRAAITLNQFKEFVKSWSIYTSWARDNPSKPDIADIFINELKEICHCEDLNVPLKIEWSTFYYLCRKRE
B2: MTQ2 (protein, UniProt Q03920 1-221)
chain: MLPTPYVKCDYDKVYEPAEDSFLILDCLEKEHDFLKQKFGNRLAIVCEIGSGSGIVTTFLMQNKIIPQENSIHLAVDINPWALEATLDTAKLNSCKSSFLEVIQADLNSSIRNNQVDVLIFNPPYVPAECVPDVPGSREEADQWLDLALLGGKDGMAITDKLLRQLEQILSPDGVAYILFCARNKPKEVIKRFVDTYKWNVKLIETRKAGWEVLSVYSFTR
B3: ECM31 (protein, UniProt P38122 1-312)
chain: MNIMKRQLCTSSKRFFSTAKNVVKYNTIQDIRNKYFTGTPLSMCTAYDFITATWVNKANCDLLLVGDSLAMTSLGYDSTITLSLNEFKYHVASVCRAEGSSMVVVDMPFGTFESGISDGLKNAIDIMKLDSKVTSVKVEVGSYTKDKYAMKFIEELCSRGIPVMAHIGLTPQKVHSLGGYKVQGSKSLLQMQELYETAMQLQKIGCWSILIECVPHKMAQFITSKLSVPTIGIGAGNGTSGQVLVISDLLGMQGDSVPKFVKQAVNMTDIATQGLKEYIASVEDRTFPERGTHTFKVKEDLWNEFLSSINEK
B4: BUD23 (protein, UniProt P25627 1-275)
chain: MSRPEELAPPEIFYNDSEAHKYTGSTRVQHIQAKMTLRALELLNLQPCSFILDIGCGSGLSGEILTQEGDHVWCGLDISPSMLATGLSRELEGDLMLQDMGTGIPFRAGSFDAAISISAIQWLCNADTSYNDPKQRLMRFFNTLYAALKKGGKFVAQFYPKNDDQVDDILQSAKVAGFSGGLVVDDPESKKNKKYYLVLSSGAPPQGEEQVNLDGVTMDEENVNLKKQLRQRLKGGKDKESAKSFILRKKELMKRRGRKVAKDSKFTGRKRRHRF
B5: NNT1 (protein, UniProt Q05874 1-261)
chain: MSDIESLGEAAGLFEEPEDFLPPPPKPHFAEYQRSHITKESKSDVKDIKLRLVGTSPLWGHLLWNAGIYTANHLDSHPELIKGKTVLELGAAAALPSVICALNGAQMVVSTDYPDPDLMQNIDYNIKSNVPEDFNNVSTEGYIWGNDYSPLLAHIEKIGNNNGKFDLIILSDLVFNHTEHHKLLQTTKDLLAEKGQALVVFSPHRPKLLEKDLEFFELAKNEFHLVPQLIEMVNWKPMFDEDEETIEVRSRVYAYYLTHEK
B6: STU2 (protein, UniProt P46675 1-888)
chain: MSGEEEVDYTTLPLEERLTYKLWKARLEAYKELNQLFRNSVGDISRDDNIQIYWRDPTLFAQYITDSNVVAQEQAIVALNSLIDAFASSSLKNAHNITLISTWTPLLVEKGLTSSRATTKTQSMSCILSLCGLDTSITQSVELVIPFFEKKLPKLIAAAANCVYELMAAFGLTNVNVQTFLPELLKHVPQLAGHGDRNVRSQTMNLIVEIYKVTGNNSDLLEEILFKKLKPIQVKDLHKLFAKVGDEPSSSKMLFEWEKRELEKKRSQEEEARKRKSILSNDEGEYQIDKDGDTLMGMETDMPPSKQQSGVQIDTFSMLPEETILDKLPKDFQERITSSKWKDRVEALEEFWDSVLSQTKKLKSTSQNYSNLLGIYGHIIQKDANIQAVALAAQSVELICDKLKTPGFSKDYVSLVFTPLLDRTKEKKPSVIEAIRKALLTICKYYDPLASSGRNEDMLKDILEHMKHKTPQIRMECTQLFNASMKEEKDGYSTLQRYLKDEVVPIVIQIVNDTQPAIRTIGFESFAILIKIFGMNTFVKTLEHLDNLKRKKIEETVKTLPNFSIASGSTHSTIETNKQTGPMENKFLLKKSSVLPSKRVASSPLRNDNKSKVNPIGSVASASKPSMVAANNKSRVLLTSKSLATPKNVVANSTDKNEKLIEEYKYRLQKLQNDEMIWTKERQSLLEKMNNTENYKIEMIKENEMLREQLKEAQSKLNEKNIQLRSKEIDVNKLSDRVLSLENELRNMEIELDRNKKRNDTNLQSMGTISSYSIPSSTVSSNYGVKSLSSALPFKEEEDVRRKEDVNYERRSSESIGDLPHRVNSLNIRPYRKNGTGVSSVSDDLDIDFNDSFASEESYKRAAAVTSTLKARIEKMKAKSRREGTTRT
B7: DAM1 (protein, UniProt P53267 1-343)
chain: MSEDKAKLGTTRSATEYRLSIGSAPTSRRSSMGESSSLMKFADQEGLTSSVGEYNENTIQQLLLPKIRELSDSIITLDSNFTRLNFIHESLADLNESLGSLLYGIMSNSWCVEFSQAPHDIQDDLIAIKQLKSLEDEKNNLVMELSNMERGIKRKKDEQGENDLAKASQNKQFNQPLFPSSQVRKYRSYDNRDKRKPSKIGNNLQVENEEDYEDDTSSEASFVLNPTNIGMSKSSQGHVTKTTRLNNNTNSKLRRKSILHTIRNSIASGADLPIENDNVVNLGDLHPNNRISLGSGAARVVNGPVTKNRNSMFSGRAERKPTESRHSVAKKTEKKINTRPPFR
B8: HMT1 (protein, UniProt P38074 1-348)
chain: MSKTAVKDSATEKTKLSESEQHYFNSYDHYGIHEEMLQDTVRTLSYRNAIIQNKDLFKDKIVLDVGCGTGILSMFAAKHGAKHVIGVDMSSIIEMAKELVELNGFSDKITLLRGKLEDVHLPFPKVDIIISEWMGYFLLYESMMDTVLYARDHYLVEGGLIFPDKCSIHLAGLEDSQYKDEKLNYWQDVYGFDYSPFVPLVLHEPIVDTVERNNVNTTSDKLIEFDLNTVKISDLAFKSNFKLTAKRQDMINGIVTWFDIVFPAPKGKRPVEFSTGPHAPYTHWKQTIFYFPDDLDAETGDTIEGELVCSPNEKNNRDLNIKISYKFESNGIDGNSRSRKNEGSYLMH
B9: HSL7 (protein, UniProt P38274 1-827)
chain: MHSNVFVGVKPGFNHKQHSKKSRFLENVSSHSPELPSNYDYVLLPITTPRYKEIVGQVFKDFQRQSIQNWKPLQIPEPQLQDICIPPFNVKKLDNDDTPSYIGLLSSWLELESRDPNVRDLGLKVLLNECKYARFVGINKLILAPPRDLSNLQLYGQMIYRLLQNRIVFAAPALTISISLPLYEDSDPLATWELWNTVRKQCEYHPSLTISLALPRTRTPSYVLNRWLAEPVSCLLVSSSIFASNQYDYPVLHKFNQNLILKFQKVNGDSQILGNELCVILHGMEKYANNVKGGESAYLEYINYLLKKGDKVLNSNSNHQFLLQEDSRIMPPLKPHSDNLLNSTYLTFEKDLVKYDLYESAILEALQDLAPRASAKRPLVILVAGAGRGPLVDRTFKIISMLFMDSKVSIIAIEKNPQAYLYLQKRNFDCWDNRVKLIKEDMTKWQINEPSEKRIQIDLCISELLGSFGCNELSPECLWSIEKYHSHNDTIFIPRSYSSYIAPISSPLFYQKLSQTNRSLEAPWIVHRVPYCILSSRVNEVWRFEHPMAQKDTVQDEDDFTVEFSQSSLNEFKIKHRGEIHGFIGFFSANLYNNIFLSTLPNDSTVRLKFSEETLMNTRREENLIKKCDHTPNMTSWSPIIFPLKQPISFIDDSELSVLMSRIHSDTEQKVWYEWSLESFIYLMLSNYTSAVTAASMTIPRSIVTDDTKTLAHNRHYSATTNQKLDNQIDLDQDIENEEEQGFLSNLETGWQSVQDIHGLSETAKPDHLDSINKPMFDLKSTKALEPSNELPRHEDLEEDVPEVHVRVKTSVSTLHNVCGRAFSLPL
B10: EFM1 (protein, UniProt P38732 1-585)
chain: MITQTELDNCLQWAQNNGAFIDPKISFRITEDAGVSAFVNEKFSPKPDQALIRVPETLLITSQQALSEFSQAANERSLLNSVTQLYLSKLKFGTDAVHLKSFYKPYLDVLPLHLPQPYFWSTDEVMNLHGTDVYLTMRDTLNKLVKEWRMLFQALSIEHSSQDKQFLSLFQENKDSAVVPLEQFCAHINGCKLEDSEWNSFVAYLWSYCIFNSRAFPRVILGRAGTDRTNLNEGFLYPIVDLLNHKNDVPVRWEMNEQNELCFMSQTTTFSAQDELFNNYGNISNEKCLLNYGFWDSSNKFDFSRLTLKLPSTLVSGLPVDFNKSGNFVTDDGETTILQFSLKISEPLPPVLLALFAYLSKLKSEETPTVRSVLEGIDQLTSVVSQRLLFYKNFKIKTSSTQKLRPHVIKLIKLYYQDNKKILNATTEKLSVLQKKIYSNNKEFSLSFKTIFKNDKIFANSLLLVFGAINYEDLITKDCLNDALLLWIVKLINDKSNNQGGFIKQTFKEVSDSIVIEKEDVMEFLPFYKKYFPNLSERIPEIYSVGDWGIRQFIVADTAIDRLVWIRKSNKEPIFLMKKAYDLQI
B11: COQ5 (protein, UniProt P49017 20-307)
chain: SRCFTQAHRACKEEEVNSPLSSAAEQPEQKYTHFGSKTVLKSTKQKLVGDVFSSVANRYDLMNDVMSLGIHRLWKDHFINKLDAGKRPNSTTPLNFIDVAGGSGDIAFGLLDHAESKFGDTESTMDIVDINPDMLKEGEKRAMEQGKYFKDPRVRFLVSNGEKLEEIDSDSKDIYTVSFGIRNFTDIQKGLNTAYRVLKPGGIFYCLEFSKIENPLMDFAYQQWAKVLPVMGSMIANDYDSYQYLVESIERFPDQETFKSMIEKAGFKSAGYESLTFGICAIHWGIKV

target: T1, 6HIS-HA-JHD2 (S. cerevisiae); assay: affinity purification with mass spectrometry; whole cell extracts of a wild-type strain with 6HIS-HA-JHD2 induced from the GAL1 promoter for 6 hours; Ni-NTA agarose and anti-HA agarose beads at 4°C for 24 hours; proteins found with the empty vector strain excluded

binding, binds:
B1
B2
B3
B4
B5
B6
B7
B8
B9
B10
B11

These are yes or no findings as the source states them, for the method shown. Binding seen in cells or lysates may run through a third protein. A yes stands for co-enrichment or nearness to the bait. Other partners may have been found. Tags and fused reporters may be left off the sequences shown.
